Reference: article PMC3511282

What was measured:
[1] = molecular target: Sf-PHB2 (prohibitin 2) (Spodoptera frugiperda (Sf9 cells)) (UniProt H6T598); assay: EMSA supershift; details: anti-Sf-PHB2 antibody 0.5 or 1 ug, poly(dI/dC); 50 mM Tris pH 7.4, 2.5 mM EDTA, 0.25 mg/ml poly(dI/dC), 250 mM NaCl, 2.5 mM DTT, 5 mM MgCl2, 20% glycerol; 20 fmol probe, 10 ug Sf9 nuclear extract, 20 min; protein in an extract; residues 1-299; label: 3' biotin
[2] = molecular target: Sf-PHB2 (prohibitin 2) (Spodoptera frugiperda (Sf9 cells)) (UniProt H6T598); assay: competition EMSA; details: 5- and 10-fold excess unlabeled probe prevented complex, 50 mM Tris pH 7.4, 2.5 mM EDTA, 0.25 mg/ml poly(dI/dC), 250 mM NaCl, 2.5 mM DTT, 5 mM MgCl2, 20% glycerol, 20 fmol probe, 10 ug Sf9 nuclear extract, 20 min, protein in an extract, residues 1-299

Sequence: CTCATTTATTCCTAGAAATGGTGTAATC (double strand) [12-bp element probe (WSSV ie1 promoter)]
- binding result [1]: binds

Sequence: CTCATTTATTCCTAGAAATGGTGTAATC (double strand) [12-bp element unlabeled competitor]
- binding result [2]: binds

For at least one entry, the source does not settle the construct or the ends of the probe. Results from cells or extracts need not show a direct contact.
